These are yes or no findings as the source states them, for the method shown. Binding seen in cells or lysates may run through a third protein. Some binding calls cover weakened binding; strength is not graded here.
How the values were obtained:
[1] = biological target: endogenous JAK2 in HeLa CHK2 KO cells stably expressing myc-CHK2 WT (human (endogenous in HeLa)) (UniProt O60674); assay: co-IP; HeLa CHK2 KO cells stably expressing myc-CHK2 WT; IP with anti-JAK2 or anti-myc antibody; with or without nocodazole overnight (moderately increased by nocodazole); JAK2 inhibitor treatment also tested
[2] = biological target: T1, Mps1 (spindle assembly checkpoint kinase), coexpressed in HEK293T cells (UniProt P33981); assay: co-IP; co-transfection of CHK2 (WT, Y156F or Y156E) and Mps1 in HEK293T cells; 50 ng/ml nocodazole overnight before collection
T1 sequence: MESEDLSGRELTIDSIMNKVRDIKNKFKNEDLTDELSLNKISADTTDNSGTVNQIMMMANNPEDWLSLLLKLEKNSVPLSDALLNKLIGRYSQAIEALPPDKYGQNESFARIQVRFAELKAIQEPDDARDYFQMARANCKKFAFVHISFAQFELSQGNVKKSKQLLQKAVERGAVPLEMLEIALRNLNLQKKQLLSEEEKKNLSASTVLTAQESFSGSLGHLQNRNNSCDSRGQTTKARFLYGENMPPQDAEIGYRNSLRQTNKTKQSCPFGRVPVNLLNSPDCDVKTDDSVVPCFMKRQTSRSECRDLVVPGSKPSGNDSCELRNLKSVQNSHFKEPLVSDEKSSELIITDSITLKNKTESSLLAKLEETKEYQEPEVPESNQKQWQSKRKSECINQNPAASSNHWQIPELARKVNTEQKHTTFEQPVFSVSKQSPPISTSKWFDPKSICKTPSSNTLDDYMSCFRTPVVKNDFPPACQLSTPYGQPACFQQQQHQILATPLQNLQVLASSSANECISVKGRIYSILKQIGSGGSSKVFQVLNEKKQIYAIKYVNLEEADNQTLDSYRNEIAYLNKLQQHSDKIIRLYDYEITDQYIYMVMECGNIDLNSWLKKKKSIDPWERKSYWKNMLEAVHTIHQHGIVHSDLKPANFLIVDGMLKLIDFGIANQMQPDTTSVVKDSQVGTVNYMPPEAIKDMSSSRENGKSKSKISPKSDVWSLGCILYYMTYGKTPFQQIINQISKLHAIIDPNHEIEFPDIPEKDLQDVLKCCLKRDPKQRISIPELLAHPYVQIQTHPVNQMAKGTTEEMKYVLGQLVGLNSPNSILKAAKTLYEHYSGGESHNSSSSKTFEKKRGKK

Protein sequences, listed by entry. Tags and fused reporters are not part of them. Lines headed by an entry give the natural chain unless they say otherwise; changes in a name come on top.
UniProt O60674: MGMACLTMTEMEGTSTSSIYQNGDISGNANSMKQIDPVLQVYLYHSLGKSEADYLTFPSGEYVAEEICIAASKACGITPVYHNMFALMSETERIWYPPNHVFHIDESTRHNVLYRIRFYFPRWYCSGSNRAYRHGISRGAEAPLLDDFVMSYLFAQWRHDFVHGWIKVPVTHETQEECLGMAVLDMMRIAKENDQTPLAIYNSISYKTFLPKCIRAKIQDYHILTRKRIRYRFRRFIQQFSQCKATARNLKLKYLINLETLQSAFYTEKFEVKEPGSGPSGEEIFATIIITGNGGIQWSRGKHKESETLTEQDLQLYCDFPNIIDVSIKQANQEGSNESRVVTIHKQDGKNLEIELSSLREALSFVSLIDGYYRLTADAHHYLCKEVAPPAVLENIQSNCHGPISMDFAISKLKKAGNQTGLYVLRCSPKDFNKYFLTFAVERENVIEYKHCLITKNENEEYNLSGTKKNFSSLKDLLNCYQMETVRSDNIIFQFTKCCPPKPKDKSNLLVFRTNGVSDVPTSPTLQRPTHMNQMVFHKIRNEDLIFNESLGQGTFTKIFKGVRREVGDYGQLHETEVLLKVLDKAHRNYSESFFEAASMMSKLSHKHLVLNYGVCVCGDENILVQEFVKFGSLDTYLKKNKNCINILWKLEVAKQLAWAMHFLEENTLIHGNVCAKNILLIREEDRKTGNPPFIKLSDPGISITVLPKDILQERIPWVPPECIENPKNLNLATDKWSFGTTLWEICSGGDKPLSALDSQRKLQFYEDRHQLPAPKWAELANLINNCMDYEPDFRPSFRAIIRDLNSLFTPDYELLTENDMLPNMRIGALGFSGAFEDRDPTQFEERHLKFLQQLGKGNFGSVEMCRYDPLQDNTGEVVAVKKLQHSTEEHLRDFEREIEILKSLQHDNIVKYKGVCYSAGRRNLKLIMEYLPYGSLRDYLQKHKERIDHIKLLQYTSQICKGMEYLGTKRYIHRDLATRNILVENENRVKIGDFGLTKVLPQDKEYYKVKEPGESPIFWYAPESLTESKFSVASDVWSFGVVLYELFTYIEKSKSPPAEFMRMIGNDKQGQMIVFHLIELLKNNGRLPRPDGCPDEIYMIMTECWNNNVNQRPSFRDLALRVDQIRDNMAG
UniProt O14777: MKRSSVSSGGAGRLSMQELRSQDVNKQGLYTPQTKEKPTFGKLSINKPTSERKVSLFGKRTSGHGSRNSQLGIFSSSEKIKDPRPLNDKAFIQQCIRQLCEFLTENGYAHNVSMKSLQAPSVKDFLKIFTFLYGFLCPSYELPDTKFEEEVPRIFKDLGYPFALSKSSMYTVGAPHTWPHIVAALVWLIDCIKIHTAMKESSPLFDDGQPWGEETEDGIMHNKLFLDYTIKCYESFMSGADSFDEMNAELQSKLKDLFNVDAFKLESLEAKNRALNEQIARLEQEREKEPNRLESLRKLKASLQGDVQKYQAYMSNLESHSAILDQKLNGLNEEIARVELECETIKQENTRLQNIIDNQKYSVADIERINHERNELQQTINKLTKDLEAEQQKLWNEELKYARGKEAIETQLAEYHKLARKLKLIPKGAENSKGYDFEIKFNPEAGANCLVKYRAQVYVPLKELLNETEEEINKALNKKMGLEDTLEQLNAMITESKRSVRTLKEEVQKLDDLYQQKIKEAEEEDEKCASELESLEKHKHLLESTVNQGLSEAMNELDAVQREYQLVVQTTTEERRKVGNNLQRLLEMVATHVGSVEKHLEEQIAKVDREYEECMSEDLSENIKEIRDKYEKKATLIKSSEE
UniProt O96017: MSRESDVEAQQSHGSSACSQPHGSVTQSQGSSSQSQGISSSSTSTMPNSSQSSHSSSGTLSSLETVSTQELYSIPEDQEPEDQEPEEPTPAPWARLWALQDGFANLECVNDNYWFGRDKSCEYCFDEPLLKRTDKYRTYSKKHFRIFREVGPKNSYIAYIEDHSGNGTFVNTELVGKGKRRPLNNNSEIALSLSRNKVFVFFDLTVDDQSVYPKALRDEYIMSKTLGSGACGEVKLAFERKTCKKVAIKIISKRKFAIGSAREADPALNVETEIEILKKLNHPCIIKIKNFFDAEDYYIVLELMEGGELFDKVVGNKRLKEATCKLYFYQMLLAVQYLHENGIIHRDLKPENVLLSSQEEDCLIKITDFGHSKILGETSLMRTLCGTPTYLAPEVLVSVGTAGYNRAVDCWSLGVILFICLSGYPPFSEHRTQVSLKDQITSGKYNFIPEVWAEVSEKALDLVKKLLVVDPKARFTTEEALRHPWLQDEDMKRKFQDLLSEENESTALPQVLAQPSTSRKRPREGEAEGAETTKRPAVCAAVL

[3] = biological target: HEC1 in HeLa CHK2 KO cells stably expressing WT or Y156F CHK2 (human (endogenous in HeLa)) (UniProt O14777); assay: co-IP; HeLa CHK2 KO stable cell lines with WT CHK2 (#103) or Y156F CHK2 (#A2), nocodazole overnight; interaction higher in the WT line

Molecule: myc-CHK2 WT-FLAG, stably expressed in HeLa CHK2 KO cells (from UniProt O96017 1-543) (enzyme)
- binding [1]: binds

Molecule: CHK2 WT (checkpoint kinase 2), expressed by transfection in HEK293T cells (from UniProt O96017 1-543) (enzyme)
- binding [2]: binds

Molecule: CHK2 Y156E (phospho-mimicking mutant), expressed by transfection in HEK293T cells (from UniProt O96017 1-543) (enzyme)
- binding [2]: binds

B1: Mps1 in HeLa CHK2 KO cells stably expressing WT or Y156F CHK2 (enzyme, UniProt P33981 1-857)
chain: T1 sequence
- binding [3]: binds

Reference: article PMC9293949
